Among the data in paper PMC4282331 are binding values, retold here.

The target of this assay is T1, GST-tagged Apm4 mu homology domain (amino acids 179-491) (S. cerevisiae) (UniProt Q99186).
T1 sequence: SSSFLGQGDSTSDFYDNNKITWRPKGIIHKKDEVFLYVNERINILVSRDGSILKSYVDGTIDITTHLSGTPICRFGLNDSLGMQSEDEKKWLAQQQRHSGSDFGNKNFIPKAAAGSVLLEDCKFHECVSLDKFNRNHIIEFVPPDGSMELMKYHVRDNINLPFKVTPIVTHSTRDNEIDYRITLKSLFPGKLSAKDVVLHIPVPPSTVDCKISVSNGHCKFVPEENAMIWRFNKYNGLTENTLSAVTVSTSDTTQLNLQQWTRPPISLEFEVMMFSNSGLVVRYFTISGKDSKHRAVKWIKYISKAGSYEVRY
Kind of assay: pull-down; GST-tagged Apm4, Apm4 mutant or GST only bound to glutathione sepharose beads, blocked overnight; 50 mM NaCl, 20 mM sodium phosphate pH 7.5, 1 mM MgCl2, 5% BSA, 10% glycerol; recombinant His-Mid2 tail incubated 30 min, 3 washes; Mid2 detected by anti-His western blot; two concentrations of Mid2 (Figure 5A), 20 µM Mid2 (Figure S3); both purified. (In western blotting, separated proteins are transferred to a membrane and probed.)

Results are given in words; binding and its absence hold for the method and conditions named. Some binding calls cover weakened binding; strength is not graded here. Where a sequence is shown, tags or fusion partners need not be part of it.

B1: His-tagged cytoplasmic tail of Mid2 (aa 251-376) (domain or fragment, UniProt P36027 251-376)
chain: QSSRTDFIDSDGKVVTAYRANKFTKWWYMLLGKKVSDEYHSDSPLGGSASSAGGLDLDEADDVMEQSSLFDVRIRDSDSVLPNANTADHNNTNSGGEPINSSVASNDIIEEKFYDEQGNELSPRNY
For the molecule B1, the binding result is “binds weakly”.
